Assay results published in paper PMC10173541.
These are yes or no findings as the source states them, for the method shown. In cells and extracts the contact can be indirect. Some entries that bind do so weakly or less than the wild type. Values belong to the molecule of their own block, whether it stands above or below them.

By UniProt entry, the sequences of proteins in these tests, tags left out.
UniProt Q8BWG8: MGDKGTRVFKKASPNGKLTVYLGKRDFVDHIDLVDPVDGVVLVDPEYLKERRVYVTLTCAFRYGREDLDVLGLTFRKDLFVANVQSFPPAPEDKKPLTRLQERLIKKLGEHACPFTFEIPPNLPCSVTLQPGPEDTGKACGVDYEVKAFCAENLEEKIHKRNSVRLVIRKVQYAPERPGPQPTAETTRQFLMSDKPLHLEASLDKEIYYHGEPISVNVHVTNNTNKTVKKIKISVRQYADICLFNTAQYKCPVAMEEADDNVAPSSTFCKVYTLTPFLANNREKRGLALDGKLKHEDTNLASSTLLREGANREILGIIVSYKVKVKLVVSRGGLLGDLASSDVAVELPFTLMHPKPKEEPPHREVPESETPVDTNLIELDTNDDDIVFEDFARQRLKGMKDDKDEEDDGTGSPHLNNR
UniProt Q8K1M6: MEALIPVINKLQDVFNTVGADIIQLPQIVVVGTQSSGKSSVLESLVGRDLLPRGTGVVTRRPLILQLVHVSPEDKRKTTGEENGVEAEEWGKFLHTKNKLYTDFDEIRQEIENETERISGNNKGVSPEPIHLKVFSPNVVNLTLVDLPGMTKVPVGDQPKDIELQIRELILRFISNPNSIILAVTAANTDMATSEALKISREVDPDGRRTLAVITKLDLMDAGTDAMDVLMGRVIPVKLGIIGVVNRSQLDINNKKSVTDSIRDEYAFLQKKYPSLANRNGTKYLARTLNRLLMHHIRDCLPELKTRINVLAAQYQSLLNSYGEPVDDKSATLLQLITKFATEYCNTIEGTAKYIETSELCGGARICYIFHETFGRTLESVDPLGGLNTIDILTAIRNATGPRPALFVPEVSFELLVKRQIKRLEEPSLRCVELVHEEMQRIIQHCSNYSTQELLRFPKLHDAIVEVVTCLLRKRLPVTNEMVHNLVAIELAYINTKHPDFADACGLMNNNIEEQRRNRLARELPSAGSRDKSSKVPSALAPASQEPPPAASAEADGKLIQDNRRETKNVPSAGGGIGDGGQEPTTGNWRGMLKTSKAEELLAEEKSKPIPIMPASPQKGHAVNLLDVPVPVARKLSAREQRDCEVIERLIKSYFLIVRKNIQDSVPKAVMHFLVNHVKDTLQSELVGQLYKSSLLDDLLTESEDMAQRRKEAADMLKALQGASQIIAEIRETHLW

What was measured:
[1] = biological target: β-arrestin1 (pcDNA3.1 construct) (UniProt Q8BWG8); test: co-IP; Flag-tagged Drp1 and β-arrestin1 pcDNA3.1 constructs co-transfected in HEK293T cells; lysates immunoprecipitated with anti-Drp1 or anti-β-arrestin1 antibody, then immunoblotting
[2] = biological target: β-arrestin1 (mouse (endogenous in primary astrocytes)) (UniProt Q8BWG8); test: co-IP; lysates of primary astrocytes (WT or β-arrestin1-/-; CON-MCM or LPS-MCM; with or without carvedilol pretreatment) incubated with anti-β-arrestin1, anti-Drp1 or anti-Fis1 antibody overnight, protein A/G-agarose beads 4 h at 4 °C, washed with cold PBS, western blot
[3] = biological target: dynamin-related protein 1 (Drp1) (mouse (endogenous in primary astrocytes)) (UniProt Q8K1M6); test: as above

binding [1]: binds
Molecule: Flag-tagged Drp1 (from UniProt Q8K1M6 1-736)

binding [2]: binds
Molecule: dynamin-related protein 1 (Drp1) (from UniProt Q8K1M6 1-736)

binding [3]: binds
B1: mitochondrial fission 1 (Fis1) (protein, UniProt Q9CQ92 1-152)
chain: MEAVLNELVSVEDLKNFERKFQSEQAAGSVSKSTQFEYAWCLVRSKYNEDIRRGIVLLEELLPKGSKEEQRDYVFYLAVGNYRLKEYEKALKYVRGLLQTEPQNNQAKELERLIDKAMKKDGLVGMAIVGGMALGVAGLAGLIGLAVSKSKS
